Experimental data published in patent US20230151065A1 (priority 2018, published 2023).

Test: peptide made by a vendor (Fmoc solid-phase peptide synthesis; Fmoc-AM-MBHA resin; DIC/HOBt)
Conditions: whole synthesis, analytical RP-HPLC, several disulfide bridges, sequence written open

For “CLETSGSCIPGAQHNCCSGVCVPLVTLFYGVCY (Achyranthes bidentata Blume)”, which “final HPLC purity” value is on record?
Its value is “greater than 95%”.

End groups of sequences in plain letters are not given here.
